Data from PubChem BioAssay AID248 (DTP/NCI, 2004).
The list is a part of this screen's results and no random one: it is rich in T/C values a quarter to a half above the control, in often repeated tests (any T/C) and in doses without a T/C. Other doses and runs of a compound stand elsewhere. T/C gives the treated animals as a percentage of the vehicle group. Some entries give survivors of the animals treated and no T/C: the source files T/C as zero there, which appears to mark a toxic dose or a test without result, not a measured value. Some survivor counts are full or nearly so, which does not show that the dose was tolerated: the source hardly ever lists a survival T/C far under the control, and the zero likely stands for such cases as well. Survivors were counted at the toxicity check, usually on the fifth day, unless a day is given; later deaths do not show. Schedules are NCI's codes, taken here to give the interval after Q, in days (D) or hours (H), and the number of doses after X. Some doses were run more than once; the results are listed from low to high. Some schedules carry Z or #; the key to these is not given. For survival time, this PubChem deposit counts one and a half times the control or more as active, and values a quarter to a half above the control carry no call in these data; other NCI protocols may use other cut-offs. Some T/C values are followed by the survivors on the day toxicity was checked, most often the fifth; without a count, all were alive then.

Tested on: L1210 leukemia ip in BDF1 mice, survival T/C
Assay: NCI In Vivo Anticancer Drug Screen. Data for tumor model L1210 Leukemia (intraperitoneal) in B6D2F1 (BDF1) mice
Conditions: T/C endpoint: mean survival time, higher T/C = longer survival
[1] = dose: 100.0 mg/kg/injection, schedule: Q04DX002 (ip), vehicle: saline
[2] = dose: 400.0 mg/kg/injection, schedule: Q04DX002 (ip), vehicle: Klucel (hydroxypropylcellulose) (HPC)
[3] = dose: 400.0 mg/kg/injection, schedule: Q01DX001 (ip), vehicle: saline with Tween-80
[4] = dose: 400.0 mg/kg/injection, schedule: Q01DX009 (ip), vehicle: saline with Tween-80
[5] = dose: 300.0 mg/kg/injection, schedule: Q01DX001 (ip), vehicle: saline
[6] = dose: 50.0 mg/kg/injection, schedule: Q01DX009 (ip), vehicle: Klucel (hydroxypropylcellulose) (HPC)
[7] = dose: 100.0 mg/kg/injection, schedule: Q01DX009 (ip), vehicle: Klucel (hydroxypropylcellulose) (HPC)
[8] = dose: 200.0 mg/kg/injection, schedule: Q01DX009 (ip), vehicle: Klucel (hydroxypropylcellulose) (HPC)
[9] = dose: 150.0 mg/kg/injection, schedule: Q01DX001 (ip), vehicle: saline
[10] = dose: 400.0 mg/kg/injection, schedule: Q04DX002 (ip), vehicle: saline
[11] = dose: 80.0 mg/kg/injection, schedule: Q01DX001 (ip), vehicle: carboxymethylcellulose (CMC)
[12] = dose: 100.0 mg/kg/injection, schedule: Q01DX001 (ip), vehicle: carboxymethylcellulose (CMC)
[13] = dose: 200.0 mg/kg/injection, schedule: Q01DX001 (ip), vehicle: carboxymethylcellulose (CMC)
[14] = dose: 400.0 mg/kg/injection, schedule: Q01DX001 (ip), vehicle: carboxymethylcellulose (CMC)
[15] = dose: 400.0 mg/kg/injection, schedule: Q01DX001 (ip), vehicle: Klucel (hydroxypropylcellulose) (HPC)

CN=C(NC1CCCCC1)c1ccc(NC(=O)c2ccc(C(=O)Nc3ccc(C(=NC)NC4CCCCC4)cc3)cc2)cc1
survivor count (dose: 15.0 mg/kg/injection, schedule: Q01DX Z (ip), vehicle: saline): 1 of 6 | survivor count (dose: 30.0 mg/kg/injection, schedule: Q01DX Z (ip), vehicle: saline): 0 of 6 | survivor count (dose: 60.0 mg/kg/injection, schedule: Q01DX Z (ip), vehicle: saline): 0 of 6 | survivor count (dose: 120.0 mg/kg/injection, schedule: Q01DX Z (ip), vehicle: saline): 0 of 6

ClCCN(CCCl)c1ccc(Nc2nc(Nc3ccc(N(CCCl)CCCl)cc3)c3ccccc3n2)cc1
T/C [1]: 138 % of control

CCCCCCCCCCCCCCCCCCNC(=O)Nc1ccc(C)c(Cl)c1
survivor count [2]: 1 of 3

Cc1ccc(COC(=O)Nc2ccc(C)c(NC(=O)OCc3ccc(C)cc3)c2)cc1
survivor count (dose: 200.0 mg/kg/injection, schedule: Q01DX009 (ip), vehicle: saline with Tween-80): 6 of 6

CC(=O)Oc1cccc2c1C(=O)OC2=O
survivor count [3]: 3 of 6

Cc1cn(C)c2nccnc12
survivor count (dose: 200.0 mg/kg/injection, schedule: Q01DX009 (ip), vehicle: water): 0 of 6 | survivor count (dose: 400.0 mg/kg/injection, schedule: Q01DX009 (ip), vehicle: water): 0 of 6

CCCCN(CCCC)c1ccc(C(=O)O)cc1
survivor count [4]: 5 of 6 | survivor count (dose: 400.0 mg/kg/injection, schedule: Q04DX003 (ip), vehicle: saline with Tween-80): 2 of 6

CCC1(/C=C/C(C)C)C(=O)NC(=O)NC1=O
survivor count [5]: 1 of 6

Cc1cnc(-n2nc(-c3ccccc3)c3c2-c2ccccc2C3)nc1-c1ccccc1O
survivor count (dose: 25.0 mg/kg/injection, schedule: Q01DX009 (ip), vehicle: Klucel (hydroxypropylcellulose) (HPC)): 3 of 3 | survivor count [6]: 3 of 3 | survivor count [7]: 3 of 3 | survivor count [8]: 3 of 3

O=C(Nc1ccc(C(=O)Nc2ccc(C3=NCCCN3)cc2)cc1)Nc1ccc(C2=NCCCN2)cc1
survivor count (dose: 15.0 mg/kg/injection, schedule: Q01DX Z (ip), vehicle: other): 2 of 6 | survivor count (dose: 30.0 mg/kg/injection, schedule: Q01DX Z (ip), vehicle: other): 0 of 6 | survivor count (dose: 60.0 mg/kg/injection, schedule: Q01DX Z (ip), vehicle: other): 0 of 6 | survivor count (dose: 120.0 mg/kg/injection, schedule: Q01DX Z (ip), vehicle: other): 0 of 6

Cc1c([N+](=O)[O-])cc(C(C)(C)C)c(OC(=O)Nc2ccc(Cl)cc2)c1[N+](=O)[O-]
survivor count (dose: 400.0 mg/kg/injection, schedule: Q04DX003 (ip), vehicle: Klucel (hydroxypropylcellulose) (HPC)): 0 of 6

Cc1cc(C)c(C(Br)C(Br)c2c(C)cc(C)cc2C)c(C)c1 (stereo unspecified)
survivor count (dose: 50.0 mg/kg/injection, schedule: Q01DX009 (ip), vehicle: saline with Tween-80): 6 of 6

O=C1Oc2ccccc2C(=O)Oc2ccccc2C(=O)Oc2ccccc2C(=O)Oc2ccccc21
survivor count [9]: 6 of 6 | survivor count [5]: 6 of 6

NCCSSCCN
survivor count [10]: 1 of 3

CCC[CH2][Pb]([Cl])([Cl])[CH2]CCC
survivor count (dose: 10.0 mg/kg/injection, schedule: Q01DX001 (ip), vehicle: carboxymethylcellulose (CMC)): 0 of 4 | survivor count (dose: 25.0 mg/kg/injection, schedule: Q01DX001 (ip), vehicle: carboxymethylcellulose (CMC)): 1 of 4 | survivor count (dose: 50.0 mg/kg/injection, schedule: Q01DX001 (ip), vehicle: carboxymethylcellulose (CMC)): 0 of 4 and 3 of 4 | survivor count [11]: 0 of 4 | survivor count [12]: 0 of 4 | survivor count [13]: 0 of 4 and 1 of 4 | survivor count [14]: 0 of 4

COc1ccccc1CCN
survivor count [1]: 3 of 3 | survivor count [10]: 1 of 3

CN1CCC(OC(=O)N(c2ccccc2)c2ccccc2)CC1
survivor count [3]: 0 of 6

c1ccc(CC2NC2c2ccccc2)cc1 (stereo unspecified)
survivor count (dose: 50.0 mg/kg/injection, schedule: Q04DX002 (ip), vehicle: Klucel (hydroxypropylcellulose) (HPC)): 3 of 3

c1ccc2c(c1)ccc1c[s+]ccc12
survivor count (dose: 400.0 mg/kg/injection, schedule: Q04DX003 (ip), vehicle: acetone): 1 of 6

Cc1ccc2c(Br)cc(Br)c(O)c2n1
survivor count [8]: 1 of 6 | survivor count (dose: 400.0 mg/kg/injection, schedule: Q01DX009 (ip), vehicle: Klucel (hydroxypropylcellulose) (HPC)): 1 of 6

C=C(Br)CNC(=O)c1ccccc1
survivor count [6]: 0 of 6 | survivor count [7]: 6 of 6 | survivor count [8]: 0 of 6 | survivor count [15]: 0 of 6

CN(C)C(=O)O/N=C(\c1ccccc1)C(F)(F)F
survivor count (dose: 4.0 mg/kg/injection, schedule: Q01DX001 (ip), vehicle: saline): 0 of 6 | survivor count (dose: 5.0 mg/kg/injection, schedule: Q01DX001 (ip), vehicle: saline): 0 of 6 | survivor count (dose: 8.0 mg/kg/injection, schedule: Q01DX001 (ip), vehicle: saline): 0 of 6 | survivor count (dose: 10.0 mg/kg/injection, schedule: Q01DX001 (ip), vehicle: saline): 1 of 6 | survivor count (dose: 20.0 mg/kg/injection, schedule: Q01DX001 (ip), vehicle: saline): 0 of 6 | survivor count (dose: 40.0 mg/kg/injection, schedule: Q01DX001 (ip), vehicle: saline): 0 of 6 | survivor count (dose: 75.0 mg/kg/injection, schedule: Q01DX001 (ip), vehicle: saline): 0 of 6 | survivor count (dose: 80.0 mg/kg/injection, schedule: Q01DX001 (ip), vehicle: saline): 0 of 6 | survivor count [9]: 0 of 6 | survivor count [5]: 0 of 6

COc1ccc(S(=O)(=O)F)cc1C(=O)O
survivor count [4]: 3 of 3

COc1nc(N)nc2c1ncn2C1OC(CO)C(O)C1O (stereo unspecified)
survivor count [5]: 0 of 6

C/C(=N\O)C(C)(C)C
survivor count (dose: 200.0 mg/kg/injection, schedule: Q04DX002 (ip), vehicle: Klucel (hydroxypropylcellulose) (HPC)): 3 of 3 | survivor count [2]: 3 of 3

[O-][n+]1ccccc1SSc1cccc[n+]1[O-]
T/C (dose: 3.12 mg/kg/injection, schedule: Q01DX009 (ip), vehicle: Klucel (hydroxypropylcellulose) (HPC)): 135 % of control | survivor count (dose: 6.25 mg/kg/injection, schedule: Q01DX009 (ip), vehicle: Klucel (hydroxypropylcellulose) (HPC)): 1 of 3 | survivor count [6]: 0 of 3 | survivor count [7]: 0 of 3 | survivor count [8]: 0 of 3

CCCCCCCCCC(=O)N1CCCCC1C (stereo unspecified)
T/C (dose: 100.0 mg/kg/injection, schedule: Q04DX002 (ip), vehicle: carboxymethylcellulose (CMC)): 94 [4 of 6 alive], 97, 100, 108 % of control

NC(=S)N/N=C\c1c[nH]c2cc(C(F)(F)F)ccc12
survivor count [11]: 0 of 4 | survivor count [12]: 0 of 4 | survivor count [13]: 0 of 4 | survivor count [14]: 0 of 4

C1=C(c2ccccc2)S/C(=C/c2ccccc2)S1
survivor count [12]: 6 of 6 | survivor count [13]: 6 of 6 | survivor count (dose: 200.0 mg/kg/injection, schedule: Q04DX003 (ip), vehicle: saline): 6 of 6

NC(=S)N/N=C/c1ccc(Cl)cc1Cl
survivor count (dose: 100.0 mg/kg/injection, schedule: Q01DX001 (ip), vehicle: Klucel (hydroxypropylcellulose) (HPC)): 1 of 6 | survivor count (dose: 200.0 mg/kg/injection, schedule: Q01DX001 (ip), vehicle: Klucel (hydroxypropylcellulose) (HPC)): 0 of 6 | survivor count [15]: 0 of 6

O=S=Nc1cc(Cl)c(Cl)cc1Cl
survivor count (dose: 200.0 mg/kg/injection, schedule: Q04DX002 (ip), vehicle: saline): 3 of 3 | survivor count [10]: 3 of 3
